Reference: PMC9789103
Results are given in words; binding and its absence hold for the method and conditions named. Binding seen in cells or lysates may run through a third protein. Here binding means that the protein was enriched with, or labelled near, the bait; the list need not be complete. For some of these results: No binding means not detected with the bait. Where a sequence is shown, tags or fusion partners need not be part of it.

Amino acid sequences for entries named in this document (tags omitted).
UniProt P51960: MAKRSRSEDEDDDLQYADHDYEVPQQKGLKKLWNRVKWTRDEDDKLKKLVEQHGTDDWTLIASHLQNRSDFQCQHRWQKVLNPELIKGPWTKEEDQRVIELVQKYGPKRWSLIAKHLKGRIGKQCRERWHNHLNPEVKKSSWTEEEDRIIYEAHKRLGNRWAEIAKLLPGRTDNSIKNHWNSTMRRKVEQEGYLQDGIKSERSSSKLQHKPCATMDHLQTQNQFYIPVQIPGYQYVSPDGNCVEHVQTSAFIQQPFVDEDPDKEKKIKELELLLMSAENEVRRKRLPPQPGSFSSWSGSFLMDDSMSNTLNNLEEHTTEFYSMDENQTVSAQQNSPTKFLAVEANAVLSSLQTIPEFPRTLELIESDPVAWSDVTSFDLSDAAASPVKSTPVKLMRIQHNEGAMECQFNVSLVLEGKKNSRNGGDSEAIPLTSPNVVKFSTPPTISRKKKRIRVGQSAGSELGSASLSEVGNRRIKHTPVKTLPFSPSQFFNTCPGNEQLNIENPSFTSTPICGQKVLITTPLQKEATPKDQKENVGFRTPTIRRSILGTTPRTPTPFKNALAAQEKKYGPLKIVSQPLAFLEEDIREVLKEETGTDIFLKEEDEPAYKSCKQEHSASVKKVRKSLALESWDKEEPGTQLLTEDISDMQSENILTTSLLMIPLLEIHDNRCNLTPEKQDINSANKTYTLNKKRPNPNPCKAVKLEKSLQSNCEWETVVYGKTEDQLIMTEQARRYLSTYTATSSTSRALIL

Experiments:
[1] = target: T1, TESMIN-TurboID-3xFLAG (mouse) (UniProt Q9WTJ6); experiment: proximity labelling; TESMIN-TurboID in testicular germ cells of TurboID-Tg positive mice; TGCs incubated in 500 μM biotin medium for 1 h; streptavidin bead pull-down of biotinylated proteins, LC-MS/MS
T1 sequence: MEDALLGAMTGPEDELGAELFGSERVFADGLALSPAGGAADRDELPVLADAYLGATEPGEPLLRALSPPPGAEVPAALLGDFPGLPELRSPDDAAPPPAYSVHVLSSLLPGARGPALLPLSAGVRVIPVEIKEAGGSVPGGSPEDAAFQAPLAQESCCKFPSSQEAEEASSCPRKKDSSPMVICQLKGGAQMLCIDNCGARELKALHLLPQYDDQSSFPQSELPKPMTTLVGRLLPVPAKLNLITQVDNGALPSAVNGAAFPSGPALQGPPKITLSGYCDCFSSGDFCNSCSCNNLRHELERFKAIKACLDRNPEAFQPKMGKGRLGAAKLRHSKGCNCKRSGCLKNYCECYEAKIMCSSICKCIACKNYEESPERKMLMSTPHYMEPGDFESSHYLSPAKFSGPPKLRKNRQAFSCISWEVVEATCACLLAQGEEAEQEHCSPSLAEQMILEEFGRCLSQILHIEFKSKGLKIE

[2] = target: T2, TESMIN-BioID2-3xFLAG (mouse) (UniProt Q9WTJ6); experiment: affinity purification with mass spectrometry; anti-FLAG immunoprecipitation (Protein G magnetic beads) from NP40 lysate of BioID2-Tg positive Tesmin KO mice, WT as control, two mice per group; LC-MS/MS; SAINT analysis
T2 sequence: T1 sequence

[3] = target: T2, TESMIN-BioID2-3xFLAG (mouse); experiment: proximity labelling; TESMIN-BioID2 in testicular germ cells of BioID2-Tg positive KO (also Het) mice; TGCs incubated in 50 µM biotin medium 16 h at 34 °C, or fresh TGCs, or mice injected with biotin 24 μg/g for 3 days; streptavidin bead pull-down of biotinylated proteins, LC-MS/MS; WT as control; SAINT analysis
[4] = target: T2, TESMIN-BioID2-3xFLAG (mouse); experiment: proximity labelling; TESMIN-BioID2; streptavidin pull-down of biotinylated proteins, immunoblot for MYBL1, LIN9, DVL2

Question: Which binding [1] does the source give for MYBL1 (from UniProt P51960 1-751) here?
Answer: binds

Question: What about the binding [2] of the same molecule?
Answer: binds

Question: What about the binding [3] of the same molecule?
Answer: binds

Question: What about the binding [4] of the same molecule?
Answer: binds

B1: LIN9 (protein, UniProt Q8C735 1-542)
chain: MAELDQLPDESSSAKALVSLKEGSLSNTWNEKYSSLQKTPVWKGRNAGPAVEMPFRNSKRSRLFSDEDDRQINTKSPKRNQRVAMIPQKFTATMSTPDKKASQKIGFRLRNLLKLPKAHKWCIYEWFYSNIDKPLFEGDNDFCVCLKESFPNLKTRKLTRVEWGKIRRLMGKPRRCSSAFFEEERSALKQKRQKIRLLQQRKVADVSQFKDLPDEIPLPLVIGTKVTARLRGIHDGLFTGQIDAVDTLNATYRVTFDRTGLGTHTIPDYEVLSNEPHETMPISAFGQKQRPSRFFMTPPRLHYTPPLQSPITDGDPLLGQSPWRSKVSGSDTETLGGFPVEFLIQVTKLSKILMIKKEHIKKLREMNTEAEKLKSYSMPIGIEFQRRYATIVLELEQLNKDLNKVLHKVQQYCYELAPDQGLQPADQPTDMRRRCEEEAQEIVRQANSASGQPCVENENLTDLISRLTAILLQIKCLAEGGDLNSFEFKSLTDSLNDIKNTIDASNISCFQNNVEIHVAHIQSGLSQMGNLHAFAANNTNRD
Question: Which binding [1] does the source give for B1 here?
Answer: binds

Question: What about the binding [2] of the same molecule?
Answer: binds

Question: What about the binding [3] of the same molecule?
Answer: binds

Question: What about the binding [4] of the same molecule?
Answer: binds

B2: disheveled segment polarity protein 1 (DVL1) (protein, UniProt P51141 1-695)
chain: MAETKIIYHMDEEETPYLVKLPVAPERVTLADFKNVLSNRPVHAYKFFFKSMDQDFGVVKEEIFDDNAKLPCFNGRVVSWLVLAEGAHSDAGSQGTDSHTDLPPPLERTGGIGDSRPPSFHPNVASSRDGMDNETGTESMVSHRRERARRRNRDEAARTNGHPRGDRRRDLGLPPDSASTVLSSELESSSFIDSDEEDNTSRLSSSTEQSTSSRLVRKHKCRRRKQRLRQTDRASSFSSITDSTMSLNIITVTLNMERHHFLGISIVGQSNDRGDGGIYIGSIMKGGAVAADGRIEPGDMLLQVNDVNFENMSNDDAVRVLREIVSQTGPISLTVAKCWDPTPRSYFTIPRADPVRPIDPAAWLSHTAALTGALPRYGTSPCSSAITRTSSSSLTSSVPGAPQLEEAPLTVKSDMSAIVRVMQLPDSGLEIRDRMWLKITIANAVIGADVVDWLYTHVEGFKERREARKYASSMLKHGFLRHTVNKITFSEQCYYVFGDLCSNLASLNLNSGSSGASDQDTLAPLPHPSVPWPLGQGYPYQYPGPPPCFPPAYQDPGFSCGSGSAGSQQSEGSKSSGSTRSSHRTPGREERRATGAGGSGSESDHTVPSGSGSTGWWERPVSQLSRGSSPRSQASAVAPGLPPLHPLTKAYAVVGGPPGGPPVRELAAVPPELTGSRQSFQKAMGNPCEFFVDIM
Question: For B2, which binding [1] is on record?
Answer: no binding

B3: DVL2 (protein, UniProt Q60838 1-736)
chain: MAGSSAGGGGVGETKVIYHLDEEETPYLVKIPVPAERITLGDFKSVLQRPAGAKYFFKSMDQDFGVVKEEISDDNARLPCFNGRVVSWLVSSDTPQPEVAPPAHESRTELVPPPPPLPPLPPERTSGIGDSRPPSFHPNVSSSHENLEPETETESVVSLRRDRPRRRDSSEHGAGGHRPGGPSRLERHLAGYESSSTLMTSELESTSLGDSDEDDTMSRFSSSTEQSSASRLLKRHRRRRKQRPPRMERTSSFSSVTDSTMSLNIITVTLNMEKYNFLGISIVGQSNERGDGGIYIGSIMKGGAVAADGRIEPGDMLLQVNDMNFENMSNDDAVRVLRDIVHKPGPIVLTVAKCWDPSPQAYFTLPRNEPIQPIDPAAWVSHSAALTGAFPAYPGSSSMSTITSGSSLPDGCEGRGLSVHMDMASVTKAMAAPESGLEVRDRMWLKITIPNAFLGSDVVDWLYHHVEGFPERREARKYASGLLKAGLIRHTVNKITFSEQCYYVFGDLSGGCESYLVNLSLNDNDGSSGASDQDTLAPLPGATPWPLLPTFSYQYPAPHPYSPQPPPYHELSSYTYGGGSASSQHSEGSRSSGSTRSDGGAGRTGRPEERAPESKSGSGSESELSSRGGSLRRGGEPGGTGDGGPPPSRGSTGAPPNLRALPGLHPYGAPSGMALPYNPMMVVMMPPPPPPVSTAVQPPGAPPVRDLGSVPPELTASRQSFHMAMGNPSEFFVDVM
Question: For B3, which binding [1] is on record?
Answer: no binding
